Results as given in PMC3037368.
These are yes or no findings as the source states them, for the method shown. For some assays here: Binding seen in cells or lysates may run through a third protein. Some entries that bind do so weakly or less than the wild type. Where a sequence is shown, tags or fusion partners need not be part of it.

What was measured:
[1] = molecular target: T1, AtBPC6 (Arabidopsis thaliana BASIC … 6), full-length, yeast two-hybrid fusion (Arabidopsis thaliana) (UniProt Q8L999); test: two-hybrid; AD (pGADT7-DEST) and BD (pGBKT7-DEST) fusions in yeast PJ69-4A; growth on selective media (CSM-L-,W-,Ade-) and β-galactosidase reporter activity (MUG substrate, n = 9), background from empty AD-clone combinations
T1 sequence: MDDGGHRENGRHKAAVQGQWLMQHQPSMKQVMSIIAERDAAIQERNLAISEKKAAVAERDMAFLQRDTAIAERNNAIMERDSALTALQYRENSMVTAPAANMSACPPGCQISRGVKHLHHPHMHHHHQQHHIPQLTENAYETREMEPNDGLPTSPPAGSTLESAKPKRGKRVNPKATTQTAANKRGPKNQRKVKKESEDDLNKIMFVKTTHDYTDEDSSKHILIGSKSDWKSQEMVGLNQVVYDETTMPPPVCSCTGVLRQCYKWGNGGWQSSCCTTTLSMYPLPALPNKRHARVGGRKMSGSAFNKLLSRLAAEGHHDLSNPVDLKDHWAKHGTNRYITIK

[2] = molecular target: T2, AtBPC6, split-YFP (BiFC) fusion (Arabidopsis thaliana) (UniProt Q8L999); test: split reporter; BiFC with split-YFP fusions (YFP fragments at the N-termini) in transiently transformed Nicotiana benthamiana leaf epidermis cells; YFP fluorescence scored by CLSM one to two days post infiltration
T2 sequence: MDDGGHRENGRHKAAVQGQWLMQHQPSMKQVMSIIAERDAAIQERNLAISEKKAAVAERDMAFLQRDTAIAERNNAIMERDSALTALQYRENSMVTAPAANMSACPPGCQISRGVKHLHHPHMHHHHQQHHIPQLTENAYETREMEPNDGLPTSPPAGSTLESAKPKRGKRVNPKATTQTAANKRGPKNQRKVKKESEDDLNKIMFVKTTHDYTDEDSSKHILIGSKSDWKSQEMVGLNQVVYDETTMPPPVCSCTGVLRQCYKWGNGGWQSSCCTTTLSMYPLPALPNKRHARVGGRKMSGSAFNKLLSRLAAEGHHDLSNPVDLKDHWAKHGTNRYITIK

[3] = molecular target: T3, RFP-BPC6 (AtBPC6 with RFP at the N-terminus) (Arabidopsis thaliana) (UniProt Q8L999); test: FRET or BRET; FRET-FLIM in planta: GFP (donor) and RFP (acceptor) fusions of AtBPC6 transiently co-expressed in Nicotiana benthamiana epidermis cells; RFP-FRET fluorescence under GFP excitation and GFP fluorescence lifetime; controls BPC6-GFP alone and with mCherry-NLS
T3 sequence: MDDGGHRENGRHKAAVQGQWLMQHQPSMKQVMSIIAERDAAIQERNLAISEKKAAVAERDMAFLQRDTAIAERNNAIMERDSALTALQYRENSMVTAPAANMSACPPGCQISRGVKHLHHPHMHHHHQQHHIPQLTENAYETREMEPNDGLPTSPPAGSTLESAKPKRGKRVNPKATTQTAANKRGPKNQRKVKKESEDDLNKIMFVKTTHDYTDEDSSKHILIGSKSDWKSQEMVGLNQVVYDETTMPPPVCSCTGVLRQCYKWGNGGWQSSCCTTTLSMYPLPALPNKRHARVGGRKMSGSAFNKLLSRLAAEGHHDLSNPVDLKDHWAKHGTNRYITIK

[4] = molecular target: T4, BPC6-RFP (AtBPC6 with RFP at the C-terminus) (Arabidopsis thaliana) (UniProt Q8L999); test: as above
T4 sequence: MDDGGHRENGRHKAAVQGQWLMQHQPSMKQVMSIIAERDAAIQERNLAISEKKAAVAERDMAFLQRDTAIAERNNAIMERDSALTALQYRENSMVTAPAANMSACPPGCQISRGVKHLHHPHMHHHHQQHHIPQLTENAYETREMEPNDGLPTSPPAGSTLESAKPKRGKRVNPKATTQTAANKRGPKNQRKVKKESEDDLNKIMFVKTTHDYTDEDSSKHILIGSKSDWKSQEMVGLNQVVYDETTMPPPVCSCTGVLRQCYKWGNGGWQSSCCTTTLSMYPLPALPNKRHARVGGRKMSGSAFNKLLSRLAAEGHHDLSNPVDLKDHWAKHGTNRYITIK

[5] = molecular target: AtBPC4 (Arabidopsis thaliana BASIC … 4), yeast two-hybrid fusion (Arabidopsis thaliana) (UniProt Q8S8C6); test: two-hybrid; AD (pGADT7-DEST) and BD (pGBKT7-DEST) fusions in yeast PJ69-4A; growth on selective media (CSM-L-,W-,Ade-) and β-galactosidase reporter activity (MUG substrate, n = 9), background from empty AD-clone combinations
[6] = molecular target: AtBPC1 (Arabidopsis thaliana BASIC … 1), yeast two-hybrid fusion (Arabidopsis thaliana) (UniProt Q9SKD0); test: as above

B1: AtBPC6 (Arabidopsis thaliana BASIC … 6), full-length, yeast two-hybrid fusion (protein, UniProt Q8L999 1-342)
chain: MDDGGHRENGRHKAAVQGQWLMQHQPSMKQVMSIIAERDAAIQERNLAISEKKAAVAERDMAFLQRDTAIAERNNAIMERDSALTALQYRENSMVTAPAANMSACPPGCQISRGVKHLHHPHMHHHHQQHHIPQLTENAYETREMEPNDGLPTSPPAGSTLESAKPKRGKRVNPKATTQTAANKRGPKNQRKVKKESEDDLNKIMFVKTTHDYTDEDSSKHILIGSKSDWKSQEMVGLNQVVYDETTMPPPVCSCTGVLRQCYKWGNGGWQSSCCTTTLSMYPLPALPNKRHARVGGRKMSGSAFNKLLSRLAAEGHHDLSNPVDLKDHWAKHGTNRYITIK
[1]
  binding: binds

B2: AtBPC4, split-YFP (BiFC) fusion (protein, UniProt Q8S8C6 1-296)
chain: MENGGQYDNARFKPDYFKGAQSMWNMIPQHQIKEQHNALVMNKKIMSILAERDAAVHERNQAVSAKKEAVAARDEALQQRDKALSERDKALIERDNAYAALQHHENSLNFALSGGKCVDGDDCFGIGEPHKLEVFPLSTIPPEVTNTKVVNKRKKENKQGLSKVKKVGEDLNRRVPAPGKKSRTDWDSQDVGLNLVTFDETTMPVPMCSCTGSTRQCYKWGNGGWQSSCCTTTLSQYPLPQMPNKRHSRMGGRKMSGNVFSRLLSRLSAEGYDLSCPVDLKDYWARHGTNRYITIK
[2]
  binding: binds

B3: BPC6-GFP (AtBPC6 with GFP at the C-terminus) (protein, UniProt Q8L999 1-342)
chain: MDDGGHRENGRHKAAVQGQWLMQHQPSMKQVMSIIAERDAAIQERNLAISEKKAAVAERDMAFLQRDTAIAERNNAIMERDSALTALQYRENSMVTAPAANMSACPPGCQISRGVKHLHHPHMHHHHQQHHIPQLTENAYETREMEPNDGLPTSPPAGSTLESAKPKRGKRVNPKATTQTAANKRGPKNQRKVKKESEDDLNKIMFVKTTHDYTDEDSSKHILIGSKSDWKSQEMVGLNQVVYDETTMPPPVCSCTGVLRQCYKWGNGGWQSSCCTTTLSMYPLPALPNKRHARVGGRKMSGSAFNKLLSRLAAEGHHDLSNPVDLKDHWAKHGTNRYITIK
[3]
  binding: binds
[4]
  binding: binds

B4: GFP-BPC6 (AtBPC6 with GFP at the N-terminus) (protein, UniProt Q8L999 1-342)
chain: MDDGGHRENGRHKAAVQGQWLMQHQPSMKQVMSIIAERDAAIQERNLAISEKKAAVAERDMAFLQRDTAIAERNNAIMERDSALTALQYRENSMVTAPAANMSACPPGCQISRGVKHLHHPHMHHHHQQHHIPQLTENAYETREMEPNDGLPTSPPAGSTLESAKPKRGKRVNPKATTQTAANKRGPKNQRKVKKESEDDLNKIMFVKTTHDYTDEDSSKHILIGSKSDWKSQEMVGLNQVVYDETTMPPPVCSCTGVLRQCYKWGNGGWQSSCCTTTLSMYPLPALPNKRHARVGGRKMSGSAFNKLLSRLAAEGHHDLSNPVDLKDHWAKHGTNRYITIK
[3]
  binding: binds
[4]
  binding: binds

B5: AtBPC4 (Arabidopsis thaliana BASIC … 4), yeast two-hybrid fusion (protein, UniProt Q8S8C6 1-296)
chain: MENGGQYDNARFKPDYFKGAQSMWNMIPQHQIKEQHNALVMNKKIMSILAERDAAVHERNQAVSAKKEAVAARDEALQQRDKALSERDKALIERDNAYAALQHHENSLNFALSGGKCVDGDDCFGIGEPHKLEVFPLSTIPPEVTNTKVVNKRKKENKQGLSKVKKVGEDLNRRVPAPGKKSRTDWDSQDVGLNLVTFDETTMPVPMCSCTGSTRQCYKWGNGGWQSSCCTTTLSQYPLPQMPNKRHSRMGGRKMSGNVFSRLLSRLSAEGYDLSCPVDLKDYWARHGTNRYITIK
[5]
  binding: binds
[1]
  binding: binds

B6: AtBPC1 (Arabidopsis thaliana BASIC … 1), yeast two-hybrid fusion (protein, UniProt Q9SKD0 1-283)
chain: MDDDGFRNWGYYEPAAASSFKGNLGLQLMSTIDRNTKPFLPGRESNLMIGSNGSYHSREQDMNYSWINQPKDNKFFNMLPISTPSYSNVLSETSGSNSIQMIHQPVLNSSRFEENPIPPPAPCEEQTGKKRKMRGSIATPTVPKAKKMRKPKEERDVTNNNVQQQQQRVKPVKKSVDLVINGVSMDISGLPVPVCTCTGTPQQCYRWGCGGWQSACCTTNISVYPLPMSTKRRGARISGRKMSQGAFKKVLEKLSTEGYSFGNAIDLKSHWARHGTNKFVTIR
[6]
  binding: binds weakly

B7: AtBPC6, split-YFP (BiFC) fusion (protein, UniProt Q8L999 1-342)
chain: MDDGGHRENGRHKAAVQGQWLMQHQPSMKQVMSIIAERDAAIQERNLAISEKKAAVAERDMAFLQRDTAIAERNNAIMERDSALTALQYRENSMVTAPAANMSACPPGCQISRGVKHLHHPHMHHHHQQHHIPQLTENAYETREMEPNDGLPTSPPAGSTLESAKPKRGKRVNPKATTQTAANKRGPKNQRKVKKESEDDLNKIMFVKTTHDYTDEDSSKHILIGSKSDWKSQEMVGLNQVVYDETTMPPPVCSCTGVLRQCYKWGNGGWQSSCCTTTLSMYPLPALPNKRHARVGGRKMSGSAFNKLLSRLAAEGHHDLSNPVDLKDHWAKHGTNRYITIK
[2]
  binding: binds

B8: YFP^C-bZIP63 (protein, UniProt B9DGI8 1-314)
chain: MEKVFSDEEISGNHHWSVNGMTSLNRSASEWAFNRFIQESSAAADDGESTTACGVSVSSPPNVPVDSEEYRAFLKSKLNLACAAVAMKRGTFIKPQDTSGRSDNGGANESEQASLASSKATPMMSSAITSGSELSGDEEEADGETNMNPTNVKRVKRMLSNRESARRSRRRKQAHLSELETQVSQLRVENSKLMKGLTDVTQTFNDASVENRVLKANIETLRAKVKMAEETVKRLTGFNPMFHNMPQIVSTVSLPSETSNSPDTTSSQVTTPEIISSGNKGKALIGCKMNRTASMRRVESLEHLQKRIRSVGDQ
[2]
  binding: no binding
